Experimental findings from patent publication US20190367612A1 are described below.

Residue numbers refer to the chain shown, from its start. No constants are given. Whether binding was seen depends on the method and setting. Binding calls can cover weak binding; strength is not graded here.

The target of test [1] is cynomolgus monkey GPRC5D (cynomolgus monkey). Kind of test: flow cytometry, KMS-11_cGPRC5D cells. For orientation: In flow cytometry, cells or beads pass a laser one at a time.
For test [2] the target is unchanged. Kind of test: flow cytometry on KMS-11_cGPRC5D cells (cynomolgus monkey GPRC5D), PE anti-human IgG Fc detection, rMFI = MFI minus isotype control.
Test [3] shares this target. Kind of test: flow cytometry on KMS-11_cGPRC5D cells (cynomolgus monkey GPRC5D), PE anti-human IgG Fc, rMFI over human IgG isotype control.

B1: humanized anti-GPRC5D antibody h7B4_H2/L2 (antibody, human IgG1, kappa, V domains shown)
VH: EIQLQESGPGLVKPSQTLSLTCTVSGYTITSGYDWSWIRQPPGKGLEWIGYMSYRGSTNYNPSLKSRVTISRDTSKNQFSLKLSSVTAADTAVYYCALTRTYWYNYYYVLDAWGQGTLVTVSS
VL: DIQMTQSPSSLSLSPGERATLSCKASQNINKYLDWYQQKPGQPPRLLIYNTNNLHTGIPDRFSGSGSGTDYTLTISRLEPEDFAVYYCLQRNSWYTFGQGTKVEIKR
With B1, the binding result in test [1] and in test [2] was “binds” throughout.

B2: humanized anti-GPRC5D antibody h7B4_H5/L1 (antibody, human IgG1, kappa, V domains shown)
VH: B1 VH with Q40K, K44N, G45K, L46M, G50A
VL: B1 VL with D1E, Q3V, M4L, S9G, S10T
Take B2: the binding result in test [1] and in test [2] was “binds” each time.

B3: human chimeric 2A4 (antibody, human IgG1, V domains shown)
VH: QVQLQQSGAELAKPGTSVKLSCKASGYTFTSYYIYWVKQRPGQGLEWIGYVYPGYGGTYYSDKFKGKATFTADTSSSTAYMLLGSLTPEDSAYYFCARRKGIIRGPGYFDYWGQGVMVTVSS
VL: DIQMTQSPASLSASLGETVSIECLASEGISNSLAWYQQKPGKSPQLLIYGASSLQDGVPSRFSGSGSGTQYSLKISGMQPEDEGLYYCQQGYKYPPTFGGGTKLELKR
Take B3: the binding result in test [1] and in test [3] was “binds” each time.

B4: human chimeric 7B4 (antibody, human IgG1, V domains shown)
VH: EIHLQESGPGLVKPSQSLSLTCSVTGYTITSGYDWSWIRKFPGNKMEWMAYMSYRGSTNYNPSLKSRISITRDTSKNQFFLQLNSVTTEDTATYYCALTRTYWYNYYYVLDAWGQGASVTVSS
VL: DIQMTQSPSFLSASVGERVTLSCKASQNINKYLDWYQQKLGEPPKLLIYNTNNLHTGIPSRFSGSGSGTDYTLTISGLQPEDVATYFCLQRNSWYTFGAGTKLELKR
B4: the binding result in test [1] and in test [3] was “binds” each time.
